Patent US20200237764A1, “DRUG COMBINATIONS FOR TARGETING MULTIPLE MUTATIONS IN CANCER” (CureMatch, Inc., priority 2017, published 2020)
At least one structure is not confirmed: it was looked up by name or label, or the drawing left a doubt.

System: CAPAN2 cells
Experiment: WST-1 colorimetric cell viability assay in CAPAN2 cells
Format: cell-based, human
Conditions: 48-72 hours
Protocol: The human pancreatic cancer cell line CAPAN2, was purchased from the American Type Culture Collection (ATCC; Manassas, Va.). Cells were grown in McCoy's Modified 5A media supplemented with 10% FCS, 1× penicillin/streptomycin and 1× amphotericin. For testing, cells were released from the dishes by treatment with PBS (without calcium) for ˜30 min followed by 0.25% trypsin-EDTA for 5 minutes at 37 C. Cells were collected in a 15 ml centrifuge tube and spun down in a clinical centrifuge for 5 min and then re-suspended in 1 ml of fresh media and the cells were counted using a hemocytometer. Cells (1×10^3-5×10^3) were then seeded into 96-well plates in 100 μL of media and the cells were incubated for 48 hours. After 48 hours, the media was replaced and the cells were re-incubated for another 24 hours prior to treatment with the drugs.
Stock drug solutions were prepared in complete media from master stock solutions prepared in DMSO according to the manufacturer's instructions. Using these stock solutions, 1:1, 2:1, 5:1, and 10:1 volume-volume (v/v) mixtures of regorafenib and trametinib were prepared. These mixtures were then two-fold serially diluted to generate a range of 20 concentrations in each case. […]
Cell viability was determined using a WST-1 colorimetric cell proliferation assay (Roche), according to manufacturer's instructions. […]

Row | SMILES | effect on CAPAN2 cell survival (in words)
1 | CC(=O)c1c(C)c2cnc(Nc3ccc(N4CCNCC4)cn3)nc2n(C2CCCC2)c1=O [palbociclib] | no significant effect on the survival
2 | CC(=O)Nc1cccc(-n2c(=O)n(C3CC3)c(=O)c3c(Nc4ccc(I)cc4F)n(C)c(=O)c(C)c32)c1 [trametinib] | significantly decreased cell survival
